Article PMC7026641, “Identification of the 3-amino-3-carboxypropyl (acp) transferase enzyme responsible for acp^3U formation at position 47 in Escherichia coli tRNAs” (Nucleic Acids Research, 2019)
No constants are given. Whether binding was seen depends on the method and setting. Where a sequence is shown, tags or fusion partners need not be part of it.

Biological target: Escherichia coli YfiP with a C-terminal hexahistidine tag (Escherichia coli) (UniProt Q47319)
Assay: SEC; analytical gel filtration of purified YfiP-His6; conditions of the analytical run not told in the main text (Supplementary Figure S2); both purified

B1: Escherichia coli YfiP with a C-terminal hexahistidine tag (enzyme, UniProt Q47319 1-232)
chain: MTENAVLQLRAERIARATRPFLARGNRVRRCQRCLLPEKLCLCSTITPAQAKSRFCLLMFDTEPMKPSNTGRLIADILPDTVAFQWSRTEPSQDLLELVQNPDYQPMVVFPASYADEQREVIFTPPAGKPPLFIMLDGTWPEARKMFRKSPYLDNLPVISVDLSRLSAYRLREAQAEGQYCTAEVAIALLDMAGDTGAAAGLGEHFTRFKTRYLAGKTQHLGSITAEQLESV
binding: no binding
